Test results reported in PubChem BioAssay AID1347131 (National Center for Advancing Translational Sciences (NCATS), 2019).
Out of some 410,000 compounds screened, about 2,000 (0.49%) were called active. Inconclusive results, whose numbers are uncertain, are shown with a selection of clear calls. Calls follow the shape of the full dose curve; tested in HEK293 reporter line. A potency beside an inconclusive call is a rough fit, not a confirmed value.

Experiment: qHTS Assay for Foot and Mouth Disease Virus Antivirals: Primary Screen against the MLPCN compound library; also: nearly all actives have a fitted effect of over 55% in size
Details: FMDV antiviral cell-based qHTS; activity, negative = inhibition: at 57.9 µM (top of the series)
Potency is read from the fitted curve at half-maximal effect.

Compound | Potency | activity, negative = inhibition
CCc1cc(SC#N)cc(CC)c1NC(=O)CCl | inconclusive: 25.1 µM [inhibitor, single point] | –
COc1ccc(C2=CC(c3cc(Br)ccc3F)n3c(nc4ccccc43)N2)cc1 (stereo not drawn) | inconclusive: 39.8 µM [inhibitor, single point] | –
O=C(c1ccccn1)N1CCN(c2ccc(C(F)(F)F)cn2)CC1 | inconclusive: 14.1 µM [inhibitor, partial curve] | –
CC/C(=C\c1oc2cc3ccccc3cc2[n+]1CC)Nc1ccccc1 | inconclusive: 22.4 µM [inhibitor, partial curve, poor fit] | –
Cn1nc(CC(=O)NCc2ccc(C(F)(F)F)cc2)c2ccccc2c1=O | inconclusive: 15.8 µM [inhibitor, partial curve, poor fit] | –
COc1cc(C(C)=O)ccc1OCC(=O)Nc1ccc(Cl)c(S(=O)(=O)N2CCOCC2)c1 | inconclusive: 20 µM [inhibitor, partial curve, poor fit] | –
Cc1nn2c(=O)cc(COC(=O)c3ccc(C(C)(C)C)cc3)nc2s1 | inactive | –
COc1ccc(NC(=O)c2ccc(S(=O)(=O)N3CCCC3)cc2)cc1OC | inconclusive: 3.16 µM [inhibitor, partial curve, poor fit] | –
COc1ccc(C(=O)C(CN2CCCC2)c2ccccc2)cc1 (stereo not drawn) | inconclusive: 15.8 µM [inhibitor, partial curve, poor fit] | –
CN(c1ccccc1)S(=O)(=O)c1cccc(NC(=O)CSc2nncs2)c1 | inconclusive: 10 µM [inhibitor, partial curve, poor fit] | –
CN(C(=O)COc1ccccc1C(=O)NCCOc1ccccc1)c1ccccc1 | inconclusive: 8.91 µM [inhibitor, full curve, poor fit] | –
COc1cccc2[nH]c3c(N4CCc5ccccc5C4)ncnc3c12 | inactive | –
COc1ccc(-c2cnc(SCC(=O)Nc3ccc4c(c3)OCO4)n2Cc2ccco2)cc1 | inactive | –
O=c1c2c(nc3n1CCCCC3)sc1c(O)cccc12 | inconclusive: 39.8 µM [inhibitor, single point] | –
COc1cc(OC)cc(-c2cc3nc(C)c(CCC(=O)O)c(C)n3n2)c1 | inconclusive: 1.41 µM [inhibitor, partial curve, poor fit] | –
COc1ccc(CCNC(=O)c2ccc(CS(=O)(=O)c3ccc(C)cc3)o2)cc1OC | inconclusive: 31.6 µM [inhibitor, partial curve, poor fit] | –
C1=CC2=NC34CCCCC3CC3=C(CCCC3)N4C2=CC1=NC1CCCCC1 (stereo not drawn) | inconclusive: 28.2 µM [inhibitor, partial curve, poor fit] | –
CNC(=O)c1sc(N2N=C3/C(=C\c4ccccc4)CCCC3C2c2ccccc2)nc1C (stereo not drawn) | inconclusive: 31.6 µM [inhibitor, partial curve, poor fit] | –
COc1cc2c(cc1OC)C(C)N(C(=O)/C=C/c1cc(OC)c(OC)c(OC)c1)CC2 (stereo not drawn) | – | inconclusive: -34.5% [inhibitor]

Compound | Potency | activity, negative = inhibition
O=C(N/N=C/c1cccs1)C(O)c1ccccc1 (stereo not drawn) | inactive | –
CCOCCOC(=O)c1[nH]c2c(c1C)C(=O)CC(c1ccc(OC)c(OC)c1)C2 (stereo not drawn) | inconclusive: 22.4 µM [inhibitor, partial curve, poor fit] | –
CCC(C)Sc1cccc(-c2nc3ccc(C)cn3c2NCc2ccccc2)c1 (stereo not drawn) | inconclusive: 31.6 µM [inhibitor, partial curve, poor fit] | –
O=[N+]([O-])c1cc([N+](=O)[O-])c2cc3ccccc3nc2c1 | inconclusive: 28.2 µM [inhibitor, partial curve, poor fit] | –
O=C(COc1ccc2c(c1)CCC2)NCc1ccc(Cl)cc1 | inconclusive: 8.91 µM [inhibitor, full curve] | –
Cc1nc([N+](=O)[O-])c(Br)n1CC(=O)c1ccc(Br)cc1 | inconclusive: 12.6 µM [inhibitor, partial curve, poor fit] | –
O=C(c1ccco1)N1CCCN(Cc2nc(Cc3ccccc3)no2)CC1 | inconclusive: 11.2 µM [inhibitor, partial curve] | –
Clc1cccc(Cc2c(-c3ccco3)nc3ccc(Br)cn23)c1 | inconclusive: 25.1 µM [inhibitor, partial curve, poor fit] | –
CCCCOc1ccc(/C=C/C(=O)OCC(=O)N2CC(=O)Nc3ccccc32)cc1OCC | inconclusive: 12.6 µM [inhibitor, partial curve, poor fit] | –
Cc1cccc(N2CCN(C(=O)CS(=O)(=O)Cc3nc(-c4ccccc4F)oc3C)CC2C)c1 (stereo not drawn) | inconclusive: 35.5 µM [inhibitor, partial curve, poor fit] | –
CN(C)c1ccc(C(=S)NCc2ccco2)cc1 | inconclusive: 15.8 µM [inhibitor, partial curve, poor fit] | –
O=C1C(=O)c2ccccc2C(O)=C1c1cccc([N+](=O)[O-])c1 | inconclusive: 39.8 µM [inhibitor, partial curve, poor fit] | –
C=C1C(=O)OC2CC(C)C3C=CC(=O)C3(C)C(O)C12 (stereo not drawn) | inconclusive: 8.91 µM [inhibitor, partial curve, poor fit] | –
CCOC(=O)c1c(NC(=O)CSc2nc3cccnc3n2C)sc(C(C)=O)c1C | inconclusive: 28.2 µM [inhibitor, partial curve, poor fit] | –
CCOc1ccc(-n2nc3ccc(NC(=O)Cc4ccccc4)cc3n2)cc1 | inconclusive: 22.4 µM [inhibitor, partial curve, poor fit] | –
COc1cc(CCNC2=CC(=O)c3ncccc3C2=O)ccc1O | inconclusive: 39.8 µM [inhibitor, partial curve, poor fit] | –
N#Cc1c(/N=C/c2cccs2)sc2c1CCCCC2 | active: 25.1 µM | –
O=C(Nc1nccs1)c1cccc(NC(=O)c2ccco2)c1 | inconclusive: 14.1 µM [inhibitor, partial curve, poor fit] | –
Cc1cccc(N2CCN(C(=O)c3c(C)nn(Cc4ccccc4Cl)c3C)CC2)c1C | inconclusive: 35.5 µM [inhibitor, partial curve, poor fit] | –

Quoted from the results shown (2 entries):
Compound | Potency | activity, negative = inhibition
CCCCOc1ccc(/C=C/C(=O)OCC(=O)N2CC(=O)Nc3ccccc32)cc1OCC | inconclusive: 12.6 µM [inhibitor, partial curve, poor fit] | –
Cc1cccc(N2CCN(C(=O)CS(=O)(=O)Cc3nc(-c4ccccc4F)oc3C)CC2C)c1 (stereo not drawn) | inconclusive: 35.5 µM [inhibitor, partial curve, poor fit] | –
